## Library screen at single concentrations

Amino acid sequences for entries named in this document (tags omitted). Residues count along the entry.
UniProt I6X8D2, whole entry: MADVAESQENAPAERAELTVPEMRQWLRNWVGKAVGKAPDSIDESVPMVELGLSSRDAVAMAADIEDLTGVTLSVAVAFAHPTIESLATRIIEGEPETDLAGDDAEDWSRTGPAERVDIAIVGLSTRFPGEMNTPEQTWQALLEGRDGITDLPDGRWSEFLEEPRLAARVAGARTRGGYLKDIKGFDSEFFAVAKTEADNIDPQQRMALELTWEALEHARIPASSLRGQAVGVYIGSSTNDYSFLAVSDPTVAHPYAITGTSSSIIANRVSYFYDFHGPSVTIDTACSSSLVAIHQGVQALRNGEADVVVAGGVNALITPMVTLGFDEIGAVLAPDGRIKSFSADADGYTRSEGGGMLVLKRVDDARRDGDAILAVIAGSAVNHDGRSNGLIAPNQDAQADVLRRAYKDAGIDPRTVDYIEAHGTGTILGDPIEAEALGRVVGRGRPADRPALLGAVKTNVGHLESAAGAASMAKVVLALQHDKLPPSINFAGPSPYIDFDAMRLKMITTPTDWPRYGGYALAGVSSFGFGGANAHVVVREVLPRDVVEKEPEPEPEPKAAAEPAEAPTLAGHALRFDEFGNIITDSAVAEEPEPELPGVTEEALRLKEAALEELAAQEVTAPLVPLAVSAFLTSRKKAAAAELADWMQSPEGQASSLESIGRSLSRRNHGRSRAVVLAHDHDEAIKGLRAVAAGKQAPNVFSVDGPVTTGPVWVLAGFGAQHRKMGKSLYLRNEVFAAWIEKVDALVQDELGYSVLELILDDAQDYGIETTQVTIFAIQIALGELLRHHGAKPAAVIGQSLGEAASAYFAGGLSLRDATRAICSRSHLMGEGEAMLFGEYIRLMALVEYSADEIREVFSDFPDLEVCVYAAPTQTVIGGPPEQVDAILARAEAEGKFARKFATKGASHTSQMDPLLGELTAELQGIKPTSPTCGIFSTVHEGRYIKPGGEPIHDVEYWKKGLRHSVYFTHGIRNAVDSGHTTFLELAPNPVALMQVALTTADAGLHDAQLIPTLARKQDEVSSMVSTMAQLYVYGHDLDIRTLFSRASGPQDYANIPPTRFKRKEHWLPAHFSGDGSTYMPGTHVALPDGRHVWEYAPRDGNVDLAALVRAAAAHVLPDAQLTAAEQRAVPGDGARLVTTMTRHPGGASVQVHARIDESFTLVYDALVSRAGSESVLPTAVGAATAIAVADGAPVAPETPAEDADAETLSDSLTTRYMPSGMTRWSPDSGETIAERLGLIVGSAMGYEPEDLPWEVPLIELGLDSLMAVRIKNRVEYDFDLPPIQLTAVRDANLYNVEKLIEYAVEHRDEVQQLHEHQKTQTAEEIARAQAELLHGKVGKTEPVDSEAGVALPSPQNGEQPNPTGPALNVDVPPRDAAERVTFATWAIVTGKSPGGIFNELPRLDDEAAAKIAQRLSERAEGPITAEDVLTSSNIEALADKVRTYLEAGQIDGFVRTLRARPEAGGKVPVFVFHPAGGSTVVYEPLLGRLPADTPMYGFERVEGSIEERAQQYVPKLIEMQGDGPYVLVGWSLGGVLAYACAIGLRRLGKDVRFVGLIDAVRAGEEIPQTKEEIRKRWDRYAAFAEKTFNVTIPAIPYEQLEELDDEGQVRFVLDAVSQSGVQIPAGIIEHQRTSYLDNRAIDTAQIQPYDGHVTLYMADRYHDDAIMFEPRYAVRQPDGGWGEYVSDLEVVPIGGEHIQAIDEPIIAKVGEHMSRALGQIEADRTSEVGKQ
UniProt A4I591, 1-473: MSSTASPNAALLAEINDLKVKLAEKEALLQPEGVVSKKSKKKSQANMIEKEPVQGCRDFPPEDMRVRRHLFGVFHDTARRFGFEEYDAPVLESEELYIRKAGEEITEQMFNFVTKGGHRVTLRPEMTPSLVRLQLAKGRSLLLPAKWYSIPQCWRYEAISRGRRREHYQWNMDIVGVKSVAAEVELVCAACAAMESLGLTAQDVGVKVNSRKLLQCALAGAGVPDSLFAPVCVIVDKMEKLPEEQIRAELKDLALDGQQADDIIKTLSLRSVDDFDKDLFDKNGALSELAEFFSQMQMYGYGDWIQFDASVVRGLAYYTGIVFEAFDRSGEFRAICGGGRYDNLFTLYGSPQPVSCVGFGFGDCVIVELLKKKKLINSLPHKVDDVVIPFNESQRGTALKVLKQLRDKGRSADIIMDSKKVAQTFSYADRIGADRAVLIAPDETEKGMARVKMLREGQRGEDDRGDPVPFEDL

The values are deposited in ChEMBL (CHEMBL3988442, “University of Dundee, Small-Polar-MMV Screening Library” (2021)).

Pks13 thioesterase: 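Polyketide synthase Pks13, Mycobacterium tuberculosis (UniProt I6X8D2). Enzyme assay of the thioesterase domain of polyketide synthase 13; the read-out is not stated. Tested at 30 µM. The record gives no direction; the compounds picked for IC50 retests had high values, so higher reads as stronger inhibition. About 67,000 compounds were tested under these conditions; 0.46% (about 300) showed 50% or more at least once.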
LiHisRS: 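Enzyme assay of histidyl-tRNA synthetase; the read-out is not stated. Target: Histidine-tRNA ligase, Leishmania infantum (UniProt A4I591). Concentration: 30 µM. The record gives no direction; compounds that gave an IC50 in retests scored well above the rest, so higher reads as stronger inhibition. The assay is labelled LdHisRS but filed under L. infantum. About 69,000 compounds were tested under these conditions; 0.6% (about 410) showed 50% or more at least once.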

The filed quantity is “Percent Effect” (%).
The controls that fix the scale are not given in the record; negative values are as filed.
The compounds are a random part of those screened.
A dash means the value is not listed here; it may have been measured.

Compound | Pks13 thioesterase | LiHisRS
Cc1cccc(NC(=O)Cn2ncc(SCC(N)=O)c(Cl)c2=O)c1C | -4.711 | 13.46
COc1ccccc1CC(C)CC(=O)N(C)Cc1cc(C)on1 (stereo unspecified) | -49.64 | -2.073
CC(C)CC(=O)N1CCCC1c1cc(CO)[nH]n1 (stereo unspecified) | 9.22 | 13.04
COCC(=O)N[C@H](C)c1onc(-c2ccc(F)cc2)c1C(=O)O | - | 12.16
O[C@H]1CN(c2nc(-c3ccccc3)no2)C[C@@H]1N1CCOCC1 | -19.74 | 28.57
O=C(Cc1cccs1)Nc1cnn(C2CCOC2)c1 (stereo unspecified) | 30.66 | 14.63
Cc1ccc(C(=O)CCC(=O)N2CCC(c3nncn3C)CC2)cc1 | -12.65 | 30.14
O=S(=O)(Cc1ccccc1Cl)N1CCC2(CC1)OCCS2 | -16.27 | 21.51
CCc1nccn1C1CCCN(C(=O)Cc2n[nH]c3ccccc23)C1 (stereo unspecified) | -9.235 | 13.51
CCc1nc(CN(C(C)=O)C2CCN(Cc3csc(C)n3)C2)no1 (stereo unspecified) | -6.96 | 13.56
O=C(O)c1cc2c(c(S(=O)(=O)N(CCCO)c3ccccc3)c1)CCC2 | -41.16 | 15.83
Cn1cnc2c(N3CCCC3)nc(C3CCNCC3)cc21 | -11.94 | 13.21
CCc1n[nH]c(=O)c(C(=O)N2CCSC(C)(C)C2)c1CC | -4.712 | 0
O=C(c1cccc(Cl)c1Cl)N1CCN(CC(O)Cn2cccn2)CC1 (stereo unspecified) | -30.37 | 8.219
Cc1ccc(CNC(CN2CCN(C)CC2)c2ccccc2)cc1C (stereo unspecified) | -13.86 | 23.08
CCN(CC)S(=O)(=O)c1ccc(NC(=O)C(C)(C)C)cc1 | 4.656 | 28.89
COc1ccc(CN2CCOC3(CCCN(c4nnc(C)o4)C3)C2)cc1 (stereo unspecified) | -18.25 | 7.619
CCCn1[nH]cc/c1=N\C(=O)CN1CCc2c(nc(C3CC3)n2C)C1 | -15.17 | 9.735
Cc1nc(CN2CC[C@H](OCC3CC3)[C@@H]2Cc2cccnc2)cs1 | -15.46 | 9.722
N#CC1(NC(=O)COC(=O)Cc2cc(Cl)c3c(c2)OCCO3)CCCC1 | -17.81 | 13.39
Cn1nc(-c2ccccc2)cc1[C@H]1CN2CC[C@H]1C[C@@H]2CNS(C)(=O)=O | -32.55 | 24.32
CN1CCN(Cc2cccnc2)C(=O)C12CCN(Cc1ccco1)CC2 | -16.65 | 5.769
CCCc1nnc(NCCCn2nc(C)c(Cl)c2C)o1 | -11.51 | 13.11
COCCCN1CC2(CCC1=O)CCN(Cc1cc(C)no1)CC2 | -21.55 | 7.2
CC(C)c1nc(CN2CCCN(c3nccs3)CC2)no1 | 8.847 | -3.846
COCCCNC(=O)CN(C)C(=O)c1cc(C)ccc1N(C)C(C)C | -7.674 | 12.31
Cc1ccnn1CCC(=O)N1CCOC(CCc2ccccc2)C1 (stereo unspecified) | -14.84 | -2.632
COc1c(CNC(C)C(=O)NC2CCCC2)c(C)nn1C (stereo unspecified) | -34.29 | 20.59
Cc1cccc(CC(=O)NC2CCN(C(=O)NC(C)(C)C)CC2)c1 | 16.97 | -38.16
Cn1ncnc1CCNC(=O)c1cc(Cl)c(Cl)n1C | -37.25 | 34.29
CN(Cc1cccnc1)C1CC2(CCN(Cc3ccccn3)CC2)C1 | -3.936 | 20
COc1ccc(C(=O)Nc2cc(CC(C)C)nn2C)cc1 | -19.17 | 12.17
CSCCC(=O)N1CCCN(Cc2cnn(C(C)C)c2)CC1 | -7.059 | 12.5
COc1ccc2nc(C3CC3)cc(C(=O)NCc3ncnn3C)c2c1 | -6.172 | 12.68
Cc1cc(C(=O)N2CCCC2)ccc1NCCO | -5.817 | 14.04
OCC1CCCN(Cc2c(C3CCCC3)[nH]c3ncccc23)C1 (stereo unspecified) | 0.9518 | 22.68
CCNC(=O)[C@@H]1C[C@H](N)CN1c1cc(C(F)(F)F)nc(N(C)C)n1 | 21.47 | 13.73
CC(C)Oc1ncc(C(=O)N2CCC(N(C)C)CC2)cc1Cl | 2.939 | 12.8
CSc1ccccc1CN1CCCn2nc(CNC(=O)N(C)C)cc2C1 | -6.594 | 9.615
N#Cc1cccc(Oc2ccc(CN3CCCC3)cc2Cl)n1 | -41.94 | 23.66
Cc1ncncc1C(=O)NCCN1CCC(C)CC1 | -18.88 | 17.7
O=S(=O)(c1ccccc1)N1CCC2(CCCN2Cc2cccnc2)C1 (stereo unspecified) | -40.96 | 34
O=c1c2cccc(Cl)c2ncn1C1CCNC1 (stereo unspecified) | -11.69 | 21.28
COc1ccc(CCNC(=O)NCc2cccc(C(N)=O)c2)cc1OC | -13.56 | 11.61
CNC(=O)CC1CC2(CCN(Cc3nccs3)CC2)c2ccccc21 (stereo unspecified) | -7.623 | 19.23
O=C1[C@H]2CN(S(=O)(=O)C3CC3)C[C@H]2CN1CC1CC1 | -0.6254 | 15.09
COc1ccc(CC(=O)Nc2c(C)nc(N3CCCC3)nc2C)cc1 | -27.04 | 12.17
Cc1cc(NC(=O)N2CCCC(O)C2)nn1-c1ccccc1Cl (stereo unspecified) | -9.884 | 3.226
CC(C)(C)c1ncc(C(=O)NCc2ccccc2CN2CCCC2)s1 | -46.19 | 40.96
Cc1noc(C)c1CCCNC(=O)C1CCN(C(=O)C2CCC2)CC1 | -2.351 | 1.653
Cc1cccc(-n2ncc3c2CCCC3NCC(C)(C)CO)c1C (stereo unspecified) | -10.83 | 2.564
Cc1cccc(CN2CC3(CCNCC3)OCC2=O)n1 | -14.05 | 15.38
Cc1csc(C2CCCCN2C(=O)c2cn[nH]c2C)n1 (stereo unspecified) | -29.97 | 15.38
CC(O)CN(C(=O)NC1CC1)C(C)C (stereo unspecified) | -14.67 | -5.618
Cc1cc(C(=O)NCc2cccs2)nc(N2CCCC2)n1 | -6.914 | 17.24
COc1ccc(CCNC(=O)CN2CCOCS2(=O)=O)cc1 | -4.249 | 0
Cc1nc(C(=O)N2CCCC2c2c(C)nn(C)c2C)cs1 (stereo unspecified) | -11.74 | 6.087
CS(=O)(=O)N1CC[C@]2(C[C@H](Oc3ccccn3)CO2)C1 | -26.78 | 21.05

The first 7 entries again:

{"compound": "Cc1cccc(NC(=O)Cn2ncc(SCC(N)=O)c(Cl)c2=O)c1C", "Pks13 thioesterase": -4.711, "LiHisRS": 13.46}
{"compound": "COc1ccccc1CC(C)CC(=O)N(C)Cc1cc(C)on1", "stereo": "stereo unspecified", "Pks13 thioesterase": -49.64, "LiHisRS": -2.073}
{"compound": "CC(C)CC(=O)N1CCCC1c1cc(CO)[nH]n1", "stereo": "stereo unspecified", "Pks13 thioesterase": 9.22, "LiHisRS": 13.04}
{"compound": "COCC(=O)N[C@H](C)c1onc(-c2ccc(F)cc2)c1C(=O)O", "LiHisRS": 12.16}
{"compound": "O[C@H]1CN(c2nc(-c3ccccc3)no2)C[C@@H]1N1CCOCC1", "Pks13 thioesterase": -19.74, "LiHisRS": 28.57}
{"compound": "O=C(Cc1cccs1)Nc1cnn(C2CCOC2)c1", "stereo": "stereo unspecified", "Pks13 thioesterase": 30.66, "LiHisRS": 14.63}
{"compound": "Cc1ccc(C(=O)CCC(=O)N2CCC(c3nncn3C)CC2)cc1", "Pks13 thioesterase": -12.65, "LiHisRS": 30.14}